In the assay the test system is P388 leukemia ip, CD2F1 mice, survival T/C. As to the kind of experiment: NCI In Vivo Anticancer Drug Screen. Data for tumor model P388 Leukemia (intraperitoneal) in CD2F1 (CDF1) mice. Particulars: T/C endpoint: median survival time, higher T/C = longer survival.
[1] abbreviates: dose: 200.0 mg/kg/injection, schedule: Q01DX005 (ip), vehicle: saline with Tween-80.
[2] abbreviates: dose: 200.0 mg/kg/injection, schedule: Q01DX009 (ip), vehicle: saline.
[3] abbreviates: dose: 100.0 mg/kg/injection, schedule: Q01DX005 (ip), vehicle: Klucel (hydroxypropylcellulose) (HPC).

In PubChem BioAssay AID330 (DTP/NCI, 2004) one finds survivor count and T/C data, which are given here for 16 compounds.

The list shows only some results of the screen, not a fair sample: it gathers tests that were run many times, whatever their T/C, doses with no T/C, and many T/C values between a quarter and a half above the control. Other doses and runs of a compound stand elsewhere. T/C is the treated group as % of the vehicle group. Some entries give survivors of the animals treated and no T/C: the source holds a T/C of zero for them, seemingly a mark for toxic or unscored doses. Some survivor counts are full or nearly so, which does not show that the dose was tolerated: survival well below the control is almost never listed, so the zero probably covers shortened survival too. Counts of survivors are from the toxicity check (mostly the fifth day) where no day follows; animals may have died later. Schedules are NCI's codes, read here as Q, the interval in days (D) or hours (H), X, the number of doses. Some entries hold several experiments; their values stand side by side, smallest first. Where survival is the endpoint, this PubChem deposit counts one and a half times the control or more as active, and values a quarter to a half above the control carry no call in these data; other NCI protocols may use other cut-offs. Marks such as (2×) say how often a value occurs here. Some T/C values carry the count of animals alive at the toxicity check (mostly the fifth day); without a count, all were alive then.

For `Cc1cccc(N2CCN(C(=O)/C(=C/c3ccccc3)NC(=O)c3ccccc3)CC2)c1`, under setting [1], the survivor count is on record as 5 of 6.

With `[CH3][Sn]([CH3])([CH3])[N]=C=[N][Sn]([CH3])([CH3])[CH3]`, the survivor count by setting is: (dose: 1.6 mg/kg/injection, schedule: Q01DX005 (ip), vehicle: saline) 3 of 6; (dose: 3.12 mg/kg/injection, schedule: Q01DX005 (ip), vehicle: saline with Tween-80) 0 of 6; (dose: 6.25 mg/kg/injection, schedule: Q01DX005 (ip), vehicle: saline with Tween-80) 0 of 6; (dose: 12.5 mg/kg/injection, schedule: Q01DX005 (ip), vehicle: saline with Tween-80) 0 of 6; (dose: 50.0 mg/kg/injection, schedule: Q01DX005 (ip), vehicle: saline with Tween-80) 0 of 6; (dose: 100.0 mg/kg/injection, schedule: Q01DX005 (ip), vehicle: saline with Tween-80) 0 of 6. Also, the survivor count under setting [1] was 0 of 6.

As for `S=C(Nc1ccc(Cl)cc1)SC1CCCCC1`, under setting [2], the T/C is 128 % of control.

With `ClCCN(CCCl)c1ccc(/C=N/Nc2ccnc3ccccc23)cc1`, the survivor count was 5 of 5 (dose: 1.56 mg/kg/injection, schedule: Q01DX009 (ip), vehicle: DMSO); 5 of 6 (dose: 3.12 mg/kg/injection, schedule: Q01DX009 (ip), vehicle: DMSO); 4 of 6 and 5 of 6 (dose: 6.25 mg/kg/injection, schedule: Q01DX009 (ip), vehicle: DMSO); 3 of 6 (dose: 12.5 mg/kg/injection, schedule: Q01DX009 (ip), vehicle: DMSO); 0 of 6 (dose: 25.0 mg/kg/injection, schedule: Q01DX009 (ip), vehicle: DMSO); 0 of 6 (dose: 50.0 mg/kg/injection, schedule: Q01DX009 (ip), vehicle: DMSO). In addition, the survivor count runs as follows: (dose: 100.0 mg/kg/injection, schedule: Q01DX009 (ip), vehicle: DMSO) 0 of 6; (dose: 200.0 mg/kg/injection, schedule: Q01DX009 (ip), vehicle: DMSO) 0 of 6.

On to `CC1CC[P+](c2ccccc2)(c2ccccc2)c2c1ccc1ccccc21` (centres undefined), for which the survivor count runs as follows: (dose: 25.0 mg/kg/injection, schedule: Q04DX002 (ip), vehicle: saline) 6 of 6; (dose: 50.0 mg/kg/injection, schedule: Q04DX002 (ip), vehicle: saline) 2 of 6; (dose: 100.0 mg/kg/injection, schedule: Q04DX002 (ip), vehicle: saline) 0 of 6; (dose: 200.0 mg/kg/injection, schedule: Q04DX002 (ip), vehicle: saline) 0 of 6; (dose: 400.0 mg/kg/injection, schedule: Q04DX002 (ip), vehicle: saline) 0 of 6.

`c1cc(C2=NCCN2)ccc1Nc1ccc(-c2cc3ccc(C4=NCCN4)cc3[nH]2)cc1`: the T/C (dose: 1.87 mg/kg/injection, schedule: Q01DX005 (ip), vehicle: Klucel (hydroxypropylcellulose) (HPC)) is 148 % of control. Moreover, the survivor count is 1 of 6 (dose: 60.0 mg/kg/injection, schedule: Q01DX005 (ip), vehicle: Klucel (hydroxypropylcellulose) (HPC)); 0 of 6 (dose: 120.0 mg/kg/injection, schedule: Q01DX005 (ip), vehicle: Klucel (hydroxypropylcellulose) (HPC)); 0 of 6 (dose: 240.0 mg/kg/injection, schedule: Q01DX005 (ip), vehicle: Klucel (hydroxypropylcellulose) (HPC)).

In the case of `O=C(O)CCCCOc1ccc(N(CCCl)CCCl)cc1`, where the note is “dose: 200.0 mg/kg/injection, schedule: Q01DX001 (ip), vehicle: Klucel (hydroxypropylcellulose) (HPC)”, the T/C is 147 % of control. Moreover, the survivor count (dose: 400.0 mg/kg/injection, schedule: Q01DX001 (ip), vehicle: Klucel (hydroxypropylcellulose) (HPC)) is recorded as 3 of 6.

As to `Cc1ccnc(NS(=O)(=O)c2ccc(Nc3c4ccccc4nc4cc(Cl)ccc34)cc2)n1`, the T/C (dose: 400.0 mg/kg/injection, schedule: Q04DX003 (ip), vehicle: Klucel (hydroxypropylcellulose) (HPC)) is 131 % of control.

Regarding `CC(=C/c1cc(C)cc(=O)o1)/C=C/c1ccc(C)c(C)c1C`, the survivor count under setting [3] is reported as 5 of 6.

For the compound `COc1cc2c(cc1OC)-c1c3c(cc4c1[C@H](C2)N(C)CC4)OCO3`, where the note is “dose: 100.0 mg/kg/injection, schedule: Q04DX003 (ip), vehicle: saline with Tween-80”, the survivor count is on record as 3 of 6.

As to `CN(C)CCNC1=C(Cl)C(=O)c2ccccc2C1=O`, the survivor count is 1 of 6 (dose: 25.0 mg/kg/injection, schedule: Q01DX009 (ip), vehicle: saline) and 0 of 6 (dose: 50.0 mg/kg/injection, schedule: Q01DX009 (ip), vehicle: saline).

Consider `CCOC(=O)CCCn1nc(-c2ccc(Cl)cc2)c(-c2ccc(Cl)cc2)c(C#N)c1=O`, for which the T/C (dose: 200.0 mg/kg/injection, schedule: Q04DX002 (ip), vehicle: saline with Tween-80) is 144 % of control. Moreover, the survivor count (dose: 400.0 mg/kg/injection, schedule: Q04DX002 (ip), vehicle: saline with Tween-80) is listed as 3 of 6.

Take `CN(C)CCN(C)CC(C)(C)C(=O)/C=C/c1ccc(Cl)c(Cl)c1`: the T/C is, setting by setting: (dose: 30.0 mg/kg/injection, schedule: Q01DX005 (ip), vehicle: saline) 127 % of control; (dose: 60.0 mg/kg/injection, schedule: Q01DX005 (ip), vehicle: saline) 104, 115, 117 % of control (2×). Further, the survivor count reads like this: (dose: 120.0 mg/kg/injection, schedule: Q01DX005 (ip), vehicle: saline) 0 of 6; (dose: 240.0 mg/kg/injection, schedule: Q01DX005 (ip), vehicle: saline) 0 of 6.

As to `N#CSCCSC#N`, the survivor count (dose: 25.0 mg/kg/injection, schedule: Q04DX002 (ip), vehicle: Klucel (hydroxypropylcellulose) (HPC)) was 0 of 6; the survivor count (dose: 50.0 mg/kg/injection, schedule: Q04DX002 (ip), vehicle: Klucel (hydroxypropylcellulose) (HPC)) is 0 of 6; the survivor count (dose: 100.0 mg/kg/injection, schedule: Q04DX002 (ip), vehicle: Klucel (hydroxypropylcellulose) (HPC)) is 0 of 6.

Take `C[n+]1c(SCC(=O)O)sc2ccccc21`: under “dose: 100.0 mg/kg/injection, schedule: Q01DX009 (ip), vehicle: saline”, the T/C is 128 and 137 % of control. Under setting [2], the survivor count is 3 of 6.

Consider `CCOC1NC(=O)Oc2ccccc21` (centres undefined), for which the T/C reads like this: (dose: 25.0 mg/kg/injection, schedule: Q01DX005 (ip), vehicle: Klucel (hydroxypropylcellulose) (HPC)) 98 (2×), 100, 103, 109 % of control; (dose: 50.0 mg/kg/injection, schedule: Q01DX005 (ip), vehicle: Klucel (hydroxypropylcellulose) (HPC)) 96 (2×), 105, 113 % of control; under setting [3], 99, 108, 113, 124 % of control; (dose: 200.0 mg/kg/injection, schedule: Q01DX005 (ip), vehicle: Klucel (hydroxypropylcellulose) (HPC), evaluated on day 23) 110 % of control [5 of 6 alive]; (dose: 200.0 mg/kg/injection, schedule: Q01DX005 (ip), vehicle: Klucel (hydroxypropylcellulose) (HPC), evaluated on day 30) 111, 114, 116, 137 % of control; (dose: 200.0 mg/kg/injection, schedule: Q01DX009 (ip), vehicle: Klucel (hydroxypropylcellulose) (HPC)) 125, 131, 148 % of control. Also, the survivor count is, setting by setting: (dose: 333.0 mg/kg/injection, schedule: Q01DX005 (ip), vehicle: Klucel (hydroxypropylcellulose) (HPC)) 2 of 6; (dose: 400.0 mg/kg/injection, schedule: Q01DX005 (ip), vehicle: Klucel (hydroxypropylcellulose) (HPC)) 0 of 6, 1 of 6, 3 of 6; (dose: 400.0 mg/kg/injection, schedule: Q01DX009 (ip), vehicle: Klucel (hydroxypropylcellulose) (HPC)) 2 of 6; (dose: 556.0 mg/kg/injection, schedule: Q01DX005 (ip), vehicle: Klucel (hydroxypropylcellulose) (HPC)) 0 of 6.
